# In the supplement of paper PMC6411743:
# ± gives the standard deviation of the averaged measurements. The list shows a part of the results.
# Target: T1, E9PER6 and related entries (UniProt O15530)
# T1 sequence (whole entry): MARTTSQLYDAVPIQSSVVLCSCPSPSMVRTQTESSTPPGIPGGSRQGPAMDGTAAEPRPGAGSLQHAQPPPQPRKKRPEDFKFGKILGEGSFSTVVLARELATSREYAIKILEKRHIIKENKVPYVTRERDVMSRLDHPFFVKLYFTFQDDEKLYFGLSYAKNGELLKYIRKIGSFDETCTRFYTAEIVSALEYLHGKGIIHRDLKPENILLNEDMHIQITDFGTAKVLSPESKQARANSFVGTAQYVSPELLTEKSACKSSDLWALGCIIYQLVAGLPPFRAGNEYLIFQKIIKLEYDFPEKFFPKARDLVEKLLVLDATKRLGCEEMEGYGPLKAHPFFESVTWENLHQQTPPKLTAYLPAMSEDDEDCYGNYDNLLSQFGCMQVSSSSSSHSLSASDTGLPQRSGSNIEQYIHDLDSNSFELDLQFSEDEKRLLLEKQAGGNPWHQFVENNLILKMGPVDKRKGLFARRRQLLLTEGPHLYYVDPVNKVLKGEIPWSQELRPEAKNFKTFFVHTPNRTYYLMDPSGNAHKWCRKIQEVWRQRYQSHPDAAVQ
# Test: NP40-soluble protein abundance relative to vehicle (solubility fold change) (ratio); higher = more soluble protein in presence of GTP
# Procedure: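 Solubility proteome profiling in Jurkat crude lysate. Lysate was treated with Mg-GTP (0.1-10 mM) for 10 min at room temperature and 3 min at 37 °C, then solubilised with 0.8% NP40 and benzonase, followed by ultracentrifugation. Proteins were quantified by TMT10 LC-MS/MS; the value is the NP40-soluble abundance relative to the NP40-processed vehicle, from 3 independent experiments.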
structure (smiles),measurement,setting,value
Nc1nc2c(ncn2[C@@H]2O[C@H](COP(=O)(O)OP(=O)(O)OP(=O)(O)O)[C@@H](O)[C@H]2O)c(=O)[nH]1 [guanosine triphosphate],NP40-soluble protein abundance,concentration: 0.1mM,1.05 ± 0.034
same,NP40-soluble protein abundance,concentration: 0.5mM,1.05 ± 0.02
same,NP40-soluble protein abundance,concentration: 1mM,0.953 ± 0.04
same,NP40-soluble protein abundance,concentration: 2mM,0.969 ± 0.052
same,NP40-soluble protein abundance,concentration: 4mM,0.944 ± 0.055
same,NP40-soluble protein abundance,concentration: 6mM,0.943 ± 0.034
same,NP40-soluble protein abundance,concentration: 8mM,0.917 ± 0.017
same,NP40-soluble protein abundance,concentration: 10mM,0.898 ± 0.035
